In patent US20040259157A1:
Changes are numbered by the printed parent chain. In names and notes the source's numbering stands. No constants are given. Whether binding was seen depends on the method and setting. Binding seen in cells or lysates may run through a third protein. Binding calls can cover weak binding; strength is not graded here. Tags and fused reporters may be left off the sequences shown.

B1: wild-type MCFD2-myc (protein, not shown: small tags and cut ends)
chain: EEPAASFSQPGSMGLDKNTVHDQEHIMEHLEGVINKPEAEMSPQELQLHYFKMHDYDGNNLLDGLELSTAITHVHKEEGSEQAPLMSEDELINIIDGVLRDDDKNNDGYIDYAEFAKSLQ
B2: MCFD2 (I136V)-myc (protein, not shown: small tags and cut ends)
chain: B1 chain with I110V

Assays:
[1] = molecular target: endogenous LMAN1 (COS-1 cells) (Chlorocebus aethiops (Green monkey) (Cercopithecus aethiops)); assay: co-immunoprecipitation with anti-myc and, in reverse, with anti-LMAN1; [35S]-labeled COS-1 extracts (FIG. 6A, lanes 3, 4)
[2] = molecular target: endogenous LMAN1 (COS-1 cells) (Chlorocebus aethiops (Green monkey) (Cercopithecus aethiops)); assay: co-immunoprecipitation, COS-1 cells transfected with MCFD2-myc (FIG. 6A)
[3] = molecular target: endogenous LMAN1 (COS-1 cells) (Chlorocebus aethiops (Green monkey) (Cercopithecus aethiops)); assay: co-immunoprecipitation
[4] = molecular target: endogenous LMAN1 (COS-1 cells) (Chlorocebus aethiops (Green monkey) (Cercopithecus aethiops)); assay: co-immunoprecipitation, transfected COS-1 cells (FIG. 6A, lanes 7, 8)

Row | Binder | binding [1] | binding [2] | binding [3] | binding [4]
1 | B1 | binds | binds | binds | 
2 | B2 |  |  |  | binds
